## Cleaved PARP in drug-treated melanoma cells

Data from the primary screen of doi:10.1371/journal.pone.0140310, rounded.

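The test systems are human melanoma cell lines, treated with two drugs together for 72 h and then stained and imaged. The read-out is the fraction of cleaved-PARP-positive nuclei, in % of that fraction in the DMSO control; 200 means twice the control level of this apoptosis marker. Every drug was used at one fixed concentration, the higher of two screened. The file gives one value for each pair and line, without errors, so small differences may be noise. The marker varies much from line to line, for technical or biological reasons.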
An unselected part of the screen is shown.
An entry leaves out what has no value listed here.

All values are for the listed drug together with lapatinib (4 µM): CS(=O)(=O)CCNCc1ccc(-c2ccc3ncnc(Nc4ccc(OCc5cccc(F)c5)c(Cl)c4)c3c2)o1

CN1CCN(c2ccc3nc(-c4c(N)c5c(F)cccc5[nH]c4=O)[nH]c3c2)CC1 at 0.5 µM gave SK-MEL-30: 273; LB2518-MEL: 267; SK-MEL-28: 129; MEL-HO: 176; LOX IMVI: 48.0; WM3619: 121.
COc1ccc(-c2ccc3c(N4CCOCC4)nc(N4C[C@@H](C)O[C@@H](C)C4)nc3n2)cc1CO at 0.1 µM gave SK-MEL-30: 86.4; LB2518-MEL: 221; SK-MEL-28: 53.1; MEL-HO: 82.5; LOX IMVI: 143; WM3619: 126.
CN(C)S(=O)(=O)c1ccc2c(c1)/C(=C/c1cc3c([nH]1)CCCC3)C(=O)N2 at 2 µM gave SK-MEL-30: 101; LB2518-MEL: 30.5; SK-MEL-28: 103; MEL-HO: 272; LOX IMVI: 82.5; WM3619: 159.
O=c1[nH]nc(Sc2ncc([N+](=O)[O-])s2)n1-c1ccc2c(c1)OCCO2 at 1 µM gave SK-MEL-30: 90.6; SK-MEL-28: 39.0; MEL-HO: 135; LOX IMVI: 78.3; WM3619: 104.
C[C@@H]1CCN(C(=O)CC#N)C[C@@H]1N(C)c1ncnc2[nH]ccc12 at 5 µM gave SK-MEL-30: 56.9; LB2518-MEL: 364; SK-MEL-28: 39.6; MEL-HO: 155; LOX IMVI: 112; WM3619: 131.
C/C(O)=C(\C#N)C(=O)Nc1cc(Br)ccc1Br at 10 µM gave SK-MEL-30: 102; LB2518-MEL: 209; SK-MEL-28: 86.8; MEL-HO: 154; LOX IMVI: 149; WM3619: 114.
O=C(O)c1ccc2c(c1)nc(Nc1cccc(Cl)c1)c1ccncc12 at 2 µM gave SK-MEL-30: 223; LB2518-MEL: 74.8; SK-MEL-28: 76.4; MEL-HO: 219; LOX IMVI: 160; WM3619: 145.
CCN(CC)CCNC(=O)c1c(C)[nH]c(/C=C2\C(=O)Nc3ccc(F)cc32)c1C at 2 µM gave SK-MEL-30: 204; SK-MEL-28: 50.3; MEL-HO: 64.7; LOX IMVI: 56.6; WM3619: 193.
Cc1cc(SCc2sc(-c3ccc(C(F)(F)F)c(F)c3)nc2C)ccc1OCC(=O)O at 10 µM gave SK-MEL-30: 80.4; LB2518-MEL: 134; SK-MEL-28: 88.3; MEL-HO: 103; LOX IMVI: 70.9; WM3619: 78.3.
CC(C)CCN1c2nc(Nc3cc(F)c(O)c(F)c3)ncc2N(C)C(=O)C1C (centres unmarked) at 1 µM gave SK-MEL-30: 191; LB2518-MEL: 80.2; SK-MEL-28: 197; MEL-HO: 383; LOX IMVI: 77.0; WM3619: 152.
C[C@]12O[C@H](C[C@]1(O)CO)n1c3ccccc3c3c4c(c5c6ccccc6n2c5c31)CNC4=O at 0.02 µM gave SK-MEL-30: 50.4; LB2518-MEL: 199; SK-MEL-28: 82.4; MEL-HO: 55.2; LOX IMVI: 113; WM3619: 166.
c1cc(-c2cnn3cc(-c4ccc(OCCN5CCCCC5)cc4)cnc23)ccn1 at 2 µM gave SK-MEL-30: 135; LB2518-MEL: 218; SK-MEL-28: 148; MEL-HO: 87.5; LOX IMVI: 165; WM3619: 244.
Cn1cnc2c(F)c(Nc3ccc(Br)cc3Cl)c(C(=O)NOCCO)cc21 at 0.075 µM gave SK-MEL-30: 317; LB2518-MEL: 372; SK-MEL-28: 110; MEL-HO: 94.6; LOX IMVI: 117; WM3619: 289.
O=C(O)c1ccc(-c2c[nH]c3ncc(-c4ccccc4)cc23)cc1C1CCCC1 at 0.8 µM gave SK-MEL-30: 70.5; LB2518-MEL: 39.3; SK-MEL-28: 256; MEL-HO: 46.6; LOX IMVI: 79.8; WM3619: 121.
Oc1nc(-c2ccc(C(F)(F)F)cc2)nc2c1CSCC2 at 10 µM gave SK-MEL-30: 75.5; LB2518-MEL: 210; SK-MEL-28: 35.3; MEL-HO: 66.3; LOX IMVI: 91.6; WM3619: 119.

For reference, 2 entries once more:

| Second drug | SK-MEL-30 | LB2518-MEL | SK-MEL-28 | MEL-HO | LOX IMVI | WM3619 |
|---|---|---|---|---|---|---|
| CC(C)CCN1c2nc(Nc3cc(F)c(O)c(F)c3)ncc2N(C)C(=O)C1C (centres unmarked) at 1 µM | 191 | 80.2 | 197 | 383 | 77.0 | 152 |
| Cn1cnc2c(F)c(Nc3ccc(Br)cc3Cl)c(C(=O)NOCCO)cc21 at 0.075 µM | 317 | 372 | 110 | 94.6 | 117 | 289 |